This data set relates to sensitised amphetamine response (hyperactivity) in mice. The experiment in a line: Sensitised behavioural response to amphetamine in mice. The class given is in vivo, mouse. The note with it: ratio of the ED50 for baseline motility and the ED50 for the sensitised response.
Consider `Cc1cc(N2CCOCC2)cc(C)c1NC(=O)CC(C)(C)C`, for which the Therapeutic index is reported as more than 1. To `COc1cc(N2CCOCC2)cc(C)c1NC(=O)CC1CCCC1` [Compound 2] belongs 2; to `Cc1cc(N2CCOCC2)nc(C)c1NC(=O)CC(C)(C)C` [Compound 3, N-(2,4-dimethyl-6-morpholin-4-yl-pyridin-3-yl)-3,3-dimethylbutyramide], 2; to `Cc1nc(N2CCOCC2)nc(C)c1NC(=O)CC1CCCC1` [2-Cyclopentyl-N-(4,6-dimethyl-2-morpholin-4-yl-pyrimidin-5-yl)-acetamide], 3. For the compound `CCC(=O)Nc1c(Br)cc(N2CCOCC2)cc1C(F)(F)F` [N-(2-Bromo-4-morpholin-4-yl-6-trifluoromethyl-phenyl)-propionamide], the Therapeutic index came out at 2. The value for `Cc1cc(N2CCOCC2)cc(C)c1NC(=O)CC1CCCC1` was 2; that for `Cc1nc(N2CCOCC2)nc(C)c1NC(=O)Cc1ccc(F)cc1` [N-(4,6-Dimethyl-2-morpholin-4-yl-pyrimidin-5-yl)-2-(4-fluoro-phenyl)-acetamide] was 5; that for `CCOC(=O)Nc1ccc(NCc2c(C)cc(C)cc2C)cc1N` [[2-Amino-4-(2,4,6-trimethyl-benzylamino)-phenyl]-carbamic acid ethyl ester] was 3. With `CCCCCC(=O)Nc1c(F)cc(N2CCOCC2)cc1F` [Hexanoic acid (2,6-difluoro-4-morpholin-4-yl-phenyl)-amide], the Therapeutic index is given as more than 2.

The values above are taken from patent US20100256145A1, “USE OF KCNQ POTASSIUM CHANNEL OPENERS FOR REDUCING SYMPTOMS OF OR TREATING DISORDERS OR CONDITIONS WHEREIN THE DOPAMINERGIC SYSTEM IS DISRUPTED” (H. LUNDBECK A/S, priority 2007, published 2010).
